Values quoted from earlier work, collected in patent US20110160166A1, “Therapeutic composition for the treatment and prevention of athlete's foot and fungal infections of the nail and surrounding tissues” (priority 2009, published 2011).
At least one structure is not confirmed: it was looked up by name or label, or the drawing left a doubt.

Key:
toenail infections = conditions: 12 weeks of daily treatment, cited from earlier work
fingernail infections = conditions: itraconazole, cited from earlier work

CCC(C)n1ncn(-c2ccc(N3CCN(c4ccc(OCC5COC(Cn6cncn6)(c6ccc(Cl)cc6Cl)O5)cc4)CC3)cc2)c1=O (stereo not shown) [itraconazole]
cure rates for toenail infections (toenail infections; itraconazole 200 mg): 14-35%
relapse rate (toenail infections; itraconazole, toenail infections): 21%
relapse (fingernail infections; fingernail infections, two pulses): no relapse
cure rates for fingernail infections (fingernail infections; two pulses (one pulse = one week daily treatment, followed by three weeks of no treatment)): 47-56%
